Experimental data taken from publication PMC6021170.

Amino acid sequences for entries named in this document (tags omitted). Residues count along the entry.
UniProt P27824, residues 21-592: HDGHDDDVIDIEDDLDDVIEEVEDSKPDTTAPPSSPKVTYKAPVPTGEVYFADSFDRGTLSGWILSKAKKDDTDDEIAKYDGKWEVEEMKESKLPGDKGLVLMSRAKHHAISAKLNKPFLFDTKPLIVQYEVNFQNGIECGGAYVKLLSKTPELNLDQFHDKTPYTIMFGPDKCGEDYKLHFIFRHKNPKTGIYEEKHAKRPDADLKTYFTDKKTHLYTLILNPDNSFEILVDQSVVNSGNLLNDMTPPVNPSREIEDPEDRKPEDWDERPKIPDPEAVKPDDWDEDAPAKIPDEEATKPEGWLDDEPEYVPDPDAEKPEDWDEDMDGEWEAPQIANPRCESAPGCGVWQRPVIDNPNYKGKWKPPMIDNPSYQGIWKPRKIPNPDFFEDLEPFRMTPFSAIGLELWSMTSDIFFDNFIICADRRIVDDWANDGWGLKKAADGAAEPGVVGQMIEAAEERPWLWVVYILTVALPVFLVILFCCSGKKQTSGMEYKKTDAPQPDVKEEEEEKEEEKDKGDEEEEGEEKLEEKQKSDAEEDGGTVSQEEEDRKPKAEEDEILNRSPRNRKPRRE
UniProt P30101, residues 25-505: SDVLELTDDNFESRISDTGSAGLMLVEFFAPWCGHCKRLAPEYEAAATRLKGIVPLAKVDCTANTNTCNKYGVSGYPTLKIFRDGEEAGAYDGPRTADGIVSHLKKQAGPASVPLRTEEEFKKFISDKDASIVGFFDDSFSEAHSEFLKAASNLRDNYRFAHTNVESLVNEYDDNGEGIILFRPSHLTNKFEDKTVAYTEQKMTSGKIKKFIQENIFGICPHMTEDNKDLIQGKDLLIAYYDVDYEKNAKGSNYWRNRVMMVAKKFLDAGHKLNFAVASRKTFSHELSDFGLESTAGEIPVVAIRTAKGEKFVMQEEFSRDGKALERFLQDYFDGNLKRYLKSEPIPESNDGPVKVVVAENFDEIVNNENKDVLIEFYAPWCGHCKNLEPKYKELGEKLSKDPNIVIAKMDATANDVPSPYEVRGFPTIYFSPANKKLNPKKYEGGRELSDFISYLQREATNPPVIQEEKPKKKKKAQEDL
UniProt P11021, residues 19-654: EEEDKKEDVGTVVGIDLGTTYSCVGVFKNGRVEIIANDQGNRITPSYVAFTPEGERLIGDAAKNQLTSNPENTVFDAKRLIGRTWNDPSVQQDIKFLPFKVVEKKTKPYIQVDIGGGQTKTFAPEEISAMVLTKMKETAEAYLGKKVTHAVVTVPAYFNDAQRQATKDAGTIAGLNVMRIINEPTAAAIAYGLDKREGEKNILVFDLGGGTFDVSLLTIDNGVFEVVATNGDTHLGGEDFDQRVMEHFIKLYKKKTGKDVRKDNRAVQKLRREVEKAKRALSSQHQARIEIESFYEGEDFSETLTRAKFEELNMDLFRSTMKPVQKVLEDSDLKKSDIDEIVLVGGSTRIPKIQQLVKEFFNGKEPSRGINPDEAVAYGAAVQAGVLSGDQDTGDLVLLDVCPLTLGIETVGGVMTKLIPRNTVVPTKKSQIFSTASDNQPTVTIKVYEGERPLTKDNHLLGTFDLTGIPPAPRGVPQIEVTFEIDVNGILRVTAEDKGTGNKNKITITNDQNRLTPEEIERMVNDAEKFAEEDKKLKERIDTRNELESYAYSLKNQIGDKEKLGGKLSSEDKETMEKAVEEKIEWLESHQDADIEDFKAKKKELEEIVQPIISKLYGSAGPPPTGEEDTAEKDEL

Legend:
[1] = target: T1, human corin mutant N1022Q (human) (UniProt Q9Y5Q5); assay: affinity purification with mass spectrometry; HEK293 cells expressing corin treated with the cross-linker DSP (0.8 mg/mL, 4°C, 30 min, stopped with 0.2 M glycine); lysates immunoprecipitated for corin, SDS-PAGE, silver-stained gels analysed by liquid chromatography-mass spectrum
T1 sequence: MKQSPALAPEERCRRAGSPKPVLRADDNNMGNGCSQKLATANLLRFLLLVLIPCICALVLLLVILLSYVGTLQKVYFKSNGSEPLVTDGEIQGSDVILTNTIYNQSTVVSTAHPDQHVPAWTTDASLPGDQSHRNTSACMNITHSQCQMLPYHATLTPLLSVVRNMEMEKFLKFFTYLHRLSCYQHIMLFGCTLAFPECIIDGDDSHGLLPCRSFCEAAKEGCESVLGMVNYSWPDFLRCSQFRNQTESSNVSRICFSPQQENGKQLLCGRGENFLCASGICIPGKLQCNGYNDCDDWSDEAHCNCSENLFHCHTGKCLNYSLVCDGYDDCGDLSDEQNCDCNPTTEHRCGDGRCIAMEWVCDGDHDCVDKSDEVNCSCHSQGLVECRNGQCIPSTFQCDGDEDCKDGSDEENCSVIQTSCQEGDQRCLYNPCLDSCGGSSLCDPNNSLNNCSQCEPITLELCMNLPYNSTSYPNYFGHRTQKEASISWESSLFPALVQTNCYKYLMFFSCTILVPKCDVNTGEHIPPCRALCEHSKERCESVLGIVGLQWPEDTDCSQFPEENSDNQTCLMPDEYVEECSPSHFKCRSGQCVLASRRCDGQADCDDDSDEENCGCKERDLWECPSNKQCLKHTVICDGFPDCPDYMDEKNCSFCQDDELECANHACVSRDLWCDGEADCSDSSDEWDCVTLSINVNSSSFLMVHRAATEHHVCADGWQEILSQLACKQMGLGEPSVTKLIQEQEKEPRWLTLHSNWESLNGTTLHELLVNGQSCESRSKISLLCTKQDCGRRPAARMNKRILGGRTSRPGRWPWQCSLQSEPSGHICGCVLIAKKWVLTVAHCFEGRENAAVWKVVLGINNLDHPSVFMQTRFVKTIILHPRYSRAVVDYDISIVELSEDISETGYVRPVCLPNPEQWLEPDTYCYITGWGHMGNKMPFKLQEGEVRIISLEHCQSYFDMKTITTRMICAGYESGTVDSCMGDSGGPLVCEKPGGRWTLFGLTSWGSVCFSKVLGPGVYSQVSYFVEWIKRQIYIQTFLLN

human corin WT (human) = target: T2, human corin WT (human) (UniProt Q9Y5Q5); assay: as above
T2 sequence: T1 sequence with Q1022N

Molecule: calnexin (from UniProt P27824 21-592)
- binding [1]: binds
- binding (human corin WT (human)): binds

Molecule: PDI family member A3 (from UniProt P30101 25-505)
- binding [1]: binds
- binding (human corin WT (human)): binds

Molecule: BiP (binding immunoglobulin protein) (from UniProt P11021 19-654)
- binding [1]: binds
- binding (human corin WT (human)): binds

Other lines, results leading:

- binding [1]: binds
- binding (human corin WT (human)): binds
Molecule: calreticulin (from UniProt P27797 18-417)

- binding [1]: binds
- binding (human corin WT (human)): binds
B1: PDI family member A4 (protein, UniProt P13667 21-645)
chain: VAGAEGPDEDSSNRENAIEDEEEEEEEDDDEEEDDLEVKEENGVLVLNDANFDNFVADKDTVLLEFYAPWCGHCKQFAPEYEKIANILKDKDPPIPVAKIDATSASVLASRFDVSGYPTIKILKKGQAVDYEGSRTQEEIVAKVREVSQPDWTPPPEVTLVLTKENFDEVVNDADIILVEFYAPWCGHCKKLAPEYEKAAKELSKRSPPIPLAKVDATAETDLAKRFDVSGYPTLKIFRKGRPYDYNGPREKYGIVDYMIEQSGPPSKEILTLKQVQEFLKDGDDVIIIGVFKGESDPAYQQYQDAANNLREDYKFHHTFSTEIAKFLKVSQGQLVVMQPEKFQSKYEPRSHMMDVQGSTQDSAIKDFVLKYALPLVGHRKVSNDAKRYTRRPLVVVYYSVDFSFDYRAATQFWRSKVLEVAKDFPEYTFAIADEEDYAGEVKDLGLSESGEDVNAAILDESGKKFAMEPEEFDSDTLREFVTAFKKGKLKPVIKSQPVPKNNKGPVKVVVGKTFDSIVMDPKKDVLIEFYAPWCGHCKQLEPVYNSLAKKYKGQKGLVIAKMDATANDVPSDRYKVEGFPTIYFAPSGDKKNPVKFEGGDRDLEHLSKFIEEHATKLSRTKEEL

Positions count from the first letter of the chain named. No constants are given. Whether binding was seen depends on the method and setting. Binding seen in cells or lysates may run through a third protein. A yes stands for co-enrichment or nearness to the bait. Other partners may have been found. One block for each molecule: values may come before it.
